No constants are given. Whether binding was seen depends on the method and setting. Binding seen in cells or lysates may run through a third protein. Here binding means that the protein was enriched with, or labelled near, the bait; the list need not be complete.
Target: TEF5-3xHA (Chlamydomonas reinhardtii)
Test: affinity purification with mass spectrometry

B1: PsaD (protein, UniProt Q39615 36-196)
chain: EAEAAPAAAKKAAEKPAWTVPTLNPDTPSPIFGGSTGGLLRKAQTEEFYVITWEAKKEQIFEMPTGGAAIMRQGPNLLKFGKKEQCLALTTQLRNKFKLTPCFYRVFPDGKVQYLHPADGVYPEKVNAGRVGANQNMRRIGQNVNPIKVKFSGRMMSPAEI
binding: binds

Reference: doi:10.1101/2024.06.24.600430
